From PubChem BioAssay AID288 (DTP/NCI, 2004) come the findings set out here.

For the experiment, the system named is BDF1 mice, M5076 sarcoma s.c., survival/tumor T/C. The experiment is described as follows: NCI In Vivo Anticancer Drug Screen. Data for tumor model Sarcoma M5076 (subcutaneous) in B6D2F1 (BDF1) mice. The protocol:
The antitumor activity of compounds was measured in mice bearing transplantable tumors. Survival or tumor size were measured and the results are expressed as the measurement made in the treated group (T) divided by the measurement made in the vehicle treated control group (C). The tumor model used in this assay is Sarcoma M5076 (subcutaneous) in B6D2F1 (BDF1) mice

Setting [1] is: T/C endpoint: median survival time, dose: 200.0 mg/kg/injection, schedule: Q01DX009 (ip), vehicle: saline with Tween-80, higher T/C = longer survival.
Where [2] appears, read: T/C endpoint: median tumor weight (est.), dose: 200.0 mg/kg/injection, schedule: Q01DX009 (ip), vehicle: saline with Tween-80, higher T/C = larger tumour.

The list is a part of this screen's results and no random one: it is rich in T/C values a quarter to a half above the control, in often repeated tests (any T/C) and in doses without a T/C. Other doses and runs of a compound stand elsewhere. T/C gives the treated animals as a percentage of the vehicle group. Schedule codes are those of the source, taken here to give the interval after Q, in days (D) or hours (H), and the number of doses after X. Some doses have a count of surviving animals in place of a T/C: the source files T/C as zero there, which appears to mark a toxic dose or a test without result, not a measured value. Some doses without a T/C left all or most animals alive at the check, yet need not have been tolerated: survival well below the control is almost never listed, so the zero probably covers shortened survival too. Survivors were counted at the toxicity check, usually on the fifth day, unless a day is given; later deaths do not show. For survival time, the PubChem record calls one and a half times the control and up active, and a quarter to a half above the control has no call in these data; cut-offs in other NCI protocols can differ. Some T/C values are followed by the survivors on the day toxicity was checked, most often the fifth; where none is given, no animal had died by that day.

Turning to `COc1cc(/C=C2\SC(=S)N(c3ccc(Cl)c(Cl)c3)C2=O)ccc1O`, the survivor count under setting [1] is recorded as 10 of 10 and the survivor count under setting [2] is 5 of 10 on day 20.
As to `Nc1ccn(C2OC3COC2C3O)c(=O)n1` (configuration not stated), the T/C (T/C endpoint: median tumor weight (est.), dose: 50.0 mg/kg/injection, schedule: Q01DX009 (ip), vehicle: saline, evaluated on day 20, higher T/C = larger tumour) is 146 % of control.
As to `C=C1C(O)C2OC3(CCC(/C=C/C(C)C4CC5(C)SC5C5(OC(CC(C)(O)C(=O)O)CCC5O)O4)O3)CCC2OC1C(O)CC(C)C1OC2(CCCCO2)CCC1C` (configuration not stated), the survivor count is recorded as 3 of 10 on day 9 (T/C endpoint: median survival time, dose: 20.0 micrograms/kg/injection, schedule: Q01DX009 (ip), vehicle: saline + alcohol, higher T/C = longer survival) and 0 of 10 on day 20 (T/C endpoint: median tumor weight (est.), dose: 20.0 micrograms/kg/injection, schedule: Q01DX009 (ip), vehicle: saline + alcohol, higher T/C = larger tumour). For the same compound, the T/C (T/C endpoint: median tumor weight (est.), dose: 10.0 micrograms/kg/injection, schedule: Q01DX009 (ip), vehicle: saline + alcohol, evaluated on day 20, higher T/C = larger tumour) is 136 % of control.
`C1CN(P2(N3CC3)=NP(N3CC3)(N3CC3)=NP(N3CC3)(N3CC3)=N2)CCO1` (configuration not stated): the survivor count runs as follows: (T/C endpoint: median survival time, dose: 100.0 mg/kg/injection, schedule: Q02DX011 (ip), vehicle: saline, higher T/C = longer survival) 3 of 10 on day 16; (T/C endpoint: median survival time, dose: 200.0 mg/kg/injection, schedule: Q02DX011 (ip), vehicle: saline, higher T/C = longer survival) 0 of 10 on day 16.
Consider `COc1cccc2c1C(=O)c1c(O)c3c(c(O)c1C2=O)C[C@@](O)(C(C)=O)C[C@@H]3OC1CC(N)C(O)C(C)O1` (some centres not stated), for which the survivor count reads like this: (T/C endpoint: median survival time, dose: 0.8 mg/kg/injection, schedule: Q04DX006 (ip), vehicle: saline, higher T/C = longer survival) 10 of 10 on day 16; (T/C endpoint: median survival time, dose: 1.6 mg/kg/injection, schedule: Q04DX006 (ip), vehicle: saline, higher T/C = longer survival) 10 of 10 on day 16; (T/C endpoint: median survival time, dose: 3.2 mg/kg/injection, schedule: Q02DX030 (ip), vehicle: saline, higher T/C = longer survival) 10 of 10 on day 16; (T/C endpoint: median survival time, dose: 3.2 mg/kg/injection, schedule: Q04DX006 (ip), vehicle: saline, higher T/C = longer survival) 9 of 9 on day 16.
For `CC(=O)Nc1ccc(OC(=O)Nc2ccc(C)c(NC(=O)Oc3ccc(NC(C)=O)cc3)c2)cc1`, the survivor count is on record as 6 of 10 on day 9 under setting [1] and 5 of 10 on day 20 under setting [2].
Regarding `[N-]=[N+]=CC(=O)CCC(N)C(=O)O` (configuration not stated), the survivor count reads like this: (T/C endpoint: median survival time, dose: 6.48 mg/kg/injection, schedule: Q04DX004 (ip), vehicle: saline, higher T/C = longer survival) 10 of 10; (T/C endpoint: median survival time, dose: 10.8 mg/kg/injection, schedule: Q04DX004 (ip), vehicle: saline, higher T/C = longer survival) 6 of 8; (T/C endpoint: median survival time, dose: 16.0 mg/kg/injection, schedule: Q04DX005 (ip), vehicle: saline, higher T/C = longer survival) 0 of 10 on day 55.
Regarding `O=NN(CCCl)C(=O)NCCCl`, the T/C was 143 % of control (T/C endpoint: median survival time, dose: 1.5 mg/kg/injection, schedule: Q01DX009 (ip), vehicle: saline + alcohol, higher T/C = longer survival) and 146 % of control (T/C endpoint: median survival time, dose: 3.0 mg/kg/injection, schedule: Q01DX009 (ip), vehicle: saline + alcohol, higher T/C = longer survival). Moreover, the survivor count is 10 of 10 on day 9 (T/C endpoint: median survival time, dose: 12.0 mg/kg/injection, schedule: Q01DX009 (ip), vehicle: saline + alcohol, higher T/C = longer survival) and 2 of 10 on day 20 (T/C endpoint: median tumor weight (est.), dose: 12.0 mg/kg/injection, schedule: Q01DX009 (ip), vehicle: saline + alcohol, higher T/C = larger tumour).
Consider `O=C1N[C@H]2[C@H](O)[C@H](O)[C@@H](O)[C@H](O)[C@@H]2c2cc3c(c(O)c21)OCO3`, for which the T/C is 125 % of control [9 of 10 alive] (T/C endpoint: median survival time, dose: 3.0 mg/kg/injection, schedule: Q01DX009 (ip), vehicle: saline + Tween-80 + alcohol, higher T/C = longer survival) and 126 % of control (T/C endpoint: median survival time, dose: 6.0 mg/kg/injection, schedule: Q01DX009 (ip), vehicle: saline + alcohol, higher T/C = longer survival). Besides, the survivor count is recorded as 5 of 10 (T/C endpoint: median survival time, dose: 6.0 mg/kg/injection, schedule: Q01DX009 (ip), vehicle: saline + Tween-80 + alcohol, higher T/C = longer survival); 0 of 10 (T/C endpoint: median survival time, dose: 12.0 mg/kg/injection, schedule: Q01DX009 (ip), vehicle: saline + Tween-80 + alcohol, higher T/C = longer survival); 4 of 10 on day 20 (T/C endpoint: median tumor weight (est.), dose: 6.0 mg/kg/injection, schedule: Q01DX009 (ip), vehicle: saline + Tween-80 + alcohol, higher T/C = larger tumour); 0 of 10 on day 20 (T/C endpoint: median tumor weight (est.), dose: 12.0 mg/kg/injection, schedule: Q01DX009 (ip), vehicle: saline + Tween-80 + alcohol, higher T/C = larger tumour).
Regarding `O=C1/C(=C/c2ccc3c(c2)OCO3)SC(=S)N1c1ccc(Cl)c(Cl)c1`, the survivor count by setting is: under setting [1], 10 of 10; under setting [2], 4 of 10 on day 20.
As to `COc1cc(NS(C)(=O)=O)ccc1Nc1c2ccccc2nc2ccccc12`, the survivor count reads like this: (T/C endpoint: mean tumor weight, dose: 0.94 mg/kg/injection, schedule: Q02DX011 (ip), vehicle: clinical formulation, higher T/C = larger tumour) 0 of 10 on day 22; (T/C endpoint: mean tumor weight, dose: 1.88 mg/kg/injection, schedule: Q02DX011 (ip), vehicle: clinical formulation, higher T/C = larger tumour) 0 of 10 on day 22; (T/C endpoint: mean tumor weight, dose: 3.75 mg/kg/injection, schedule: Q02DX011 (ip), vehicle: clinical formulation, higher T/C = larger tumour) 0 of 10 on day 22; (T/C endpoint: mean tumor weight, dose: 7.5 mg/kg/injection, schedule: Q02DX011 (ip), vehicle: clinical formulation, higher T/C = larger tumour) 0 of 10 on day 22; (T/C endpoint: median tumor weight (est.), dose: 0.94 mg/kg/injection, schedule: Q02DX011 (ip), vehicle: clinical formulation, higher T/C = larger tumour) 0 of 10 on day 22; (T/C endpoint: median tumor weight (est.), dose: 1.88 mg/kg/injection, schedule: Q02DX011 (ip), vehicle: clinical formulation, higher T/C = larger tumour) 0 of 10 on day 22. The survivor count is, setting by setting: (T/C endpoint: median tumor weight (est.), dose: 3.75 mg/kg/injection, schedule: Q02DX011 (ip), vehicle: clinical formulation, higher T/C = larger tumour) 0 of 10 on day 22; (T/C endpoint: median tumor weight (est.), dose: 7.5 mg/kg/injection, schedule: Q02DX011 (ip), vehicle: clinical formulation, higher T/C = larger tumour) 0 of 10 on day 22.
